Test results reported in PMC9066784.
No constants are given. Whether binding was seen depends on the method and setting. In cells and extracts the contact can be indirect. Some entries that bind do so weakly or less than the wild type.

Sequences of proteins named here, by UniProt entry; tags and fusion partners are left off. A change or cut given only in a name is not applied to a line headed by its entry. Residues count along the entry.
UniProt P46531, residues 1754-2555: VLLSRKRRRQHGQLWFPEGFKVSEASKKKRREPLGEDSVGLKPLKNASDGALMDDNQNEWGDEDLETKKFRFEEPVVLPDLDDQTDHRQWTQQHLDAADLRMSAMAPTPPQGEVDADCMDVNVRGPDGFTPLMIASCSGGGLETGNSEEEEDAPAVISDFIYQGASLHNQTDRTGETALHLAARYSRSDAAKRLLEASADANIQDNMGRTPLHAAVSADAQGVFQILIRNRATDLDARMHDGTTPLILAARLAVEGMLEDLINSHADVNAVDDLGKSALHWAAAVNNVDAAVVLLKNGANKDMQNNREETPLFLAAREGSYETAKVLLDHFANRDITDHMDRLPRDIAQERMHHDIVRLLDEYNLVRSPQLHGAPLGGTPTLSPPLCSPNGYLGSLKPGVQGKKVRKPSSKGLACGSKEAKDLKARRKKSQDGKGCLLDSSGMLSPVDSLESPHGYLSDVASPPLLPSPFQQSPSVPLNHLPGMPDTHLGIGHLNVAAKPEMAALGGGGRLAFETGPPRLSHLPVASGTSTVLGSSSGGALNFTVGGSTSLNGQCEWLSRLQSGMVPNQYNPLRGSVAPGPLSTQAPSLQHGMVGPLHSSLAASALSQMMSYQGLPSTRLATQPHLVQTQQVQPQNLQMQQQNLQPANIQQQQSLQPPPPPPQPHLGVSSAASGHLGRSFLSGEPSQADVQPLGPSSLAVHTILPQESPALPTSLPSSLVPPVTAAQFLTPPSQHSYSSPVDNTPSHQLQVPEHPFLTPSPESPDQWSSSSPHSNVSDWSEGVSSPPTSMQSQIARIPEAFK
UniProt Q969H0: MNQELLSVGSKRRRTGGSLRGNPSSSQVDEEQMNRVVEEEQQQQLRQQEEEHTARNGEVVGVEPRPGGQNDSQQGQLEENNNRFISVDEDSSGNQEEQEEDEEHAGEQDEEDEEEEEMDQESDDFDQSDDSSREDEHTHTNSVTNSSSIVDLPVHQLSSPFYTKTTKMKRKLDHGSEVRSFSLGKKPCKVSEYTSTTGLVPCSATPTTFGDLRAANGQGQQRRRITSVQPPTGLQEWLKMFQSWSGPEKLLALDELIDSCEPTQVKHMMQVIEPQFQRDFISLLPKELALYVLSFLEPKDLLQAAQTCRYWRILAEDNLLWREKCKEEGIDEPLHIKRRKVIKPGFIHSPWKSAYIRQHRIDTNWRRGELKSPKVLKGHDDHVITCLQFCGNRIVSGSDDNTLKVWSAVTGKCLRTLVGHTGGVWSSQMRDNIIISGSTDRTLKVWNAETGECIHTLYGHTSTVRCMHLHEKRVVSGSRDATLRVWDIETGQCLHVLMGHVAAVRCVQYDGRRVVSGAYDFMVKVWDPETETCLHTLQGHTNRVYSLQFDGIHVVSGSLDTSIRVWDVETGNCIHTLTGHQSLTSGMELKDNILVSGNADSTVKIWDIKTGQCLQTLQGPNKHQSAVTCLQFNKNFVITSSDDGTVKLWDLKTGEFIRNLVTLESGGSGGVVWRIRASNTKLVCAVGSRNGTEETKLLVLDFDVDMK
UniProt Q15208: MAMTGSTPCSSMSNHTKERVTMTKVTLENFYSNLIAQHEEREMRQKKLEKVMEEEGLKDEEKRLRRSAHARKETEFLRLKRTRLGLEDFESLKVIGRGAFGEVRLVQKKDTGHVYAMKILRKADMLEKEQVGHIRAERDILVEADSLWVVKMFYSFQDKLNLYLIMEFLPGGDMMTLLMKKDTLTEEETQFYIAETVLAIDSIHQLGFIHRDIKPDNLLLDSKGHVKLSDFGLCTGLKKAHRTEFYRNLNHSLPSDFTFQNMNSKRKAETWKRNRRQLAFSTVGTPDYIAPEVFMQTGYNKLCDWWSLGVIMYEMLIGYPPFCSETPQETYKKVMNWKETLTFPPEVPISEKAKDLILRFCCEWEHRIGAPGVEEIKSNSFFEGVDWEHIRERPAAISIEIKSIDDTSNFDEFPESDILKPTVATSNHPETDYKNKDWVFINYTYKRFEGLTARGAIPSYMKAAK

Experiments:
[1] = biological target: Notch1 intracellular domain (endogenous NICD) (human (endogenous in SUM149)) (UniProt P46531); test: co-IP; wild type or kinase-dead NDR1 or control vector overexpressed in SUM149 cells for 24 h; total protein, immunoprecipitation and western blot (Fig. 5e)
[2] = biological target: Fbw7/Sel10 ubiquitin ligase (UniProt Q969H0); test: co-IP; SUM149 cells transfected with indicated vectors for 24 h; total protein, immunoprecipitation and western blot (Fig. 5h)
[3] = biological target: Notch1 intracellular domain (endogenous NICD) (human (endogenous in SUM149)) (UniProt P46531); test: co-IP; total protein of SUM149 cells, endogenous proteins, immunoprecipitation and western blot with antibodies as indicated (Fig. 5d)

With “kinase-dead (K118A) NDR1 (overexpressed) (from UniProt Q15208 1-465)” as the substance, how does the binding [1] read?
The binding was “binds”.

What about the binding [2] of the same substance?
Its binding is “binds”.

How did the binding [3] turn out when “NDR1/STK38 kinase (endogenous) (from UniProt Q15208 1-465)” was run?
The binding was “binds”.

With “wild type NDR1 (overexpressed) (from UniProt Q15208 1-465)” as the substance, how does the binding [1] read?
The binding was “binds”.

And the binding [2]?
The binding was “binds”.
